Taken from: PubChem BioAssay AID1053208 (Peter MacCallum Cancer Centre, 2014)

- Aim: 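Genes whose silencing cuts survival of bone tumour cells only with doxorubicin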 (primary screen)
- Cell system: mouse osteosarcoma cells, early-passage culture from an engineered mouse model of fibroblastic bone tumour
- Reagents: siRNA pool against mouse genes, 40 nM
- Timing: about 120 h (48 h before drug, then 72 h with drug)
- Challenge: doxorubicin 100 nM for 72 h, roughly 30-40% inhibitory dose
- Read-out: 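Luminescent ATP signal taken as viability with or without 100 nM doxorubicin for 72 h; mean of two wells set against non-targeting siRNA and turned into robust z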
- Direction: viability z-score with doxorubicin: higher = more viable cells under doxorubicin; viability z-score without drug: higher = more viable cells with knock-down alone
- Rule for the call: 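Called active if knock-down leaves viability unchanged without drug (z within -2 to 2) but lowers it with doxorubicin (z at or under -2)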
Here is an unselected part of about 17,000 reagents. Of all reagents, 788 (4.7%) are marked active. 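Calls rest on z-score classes alone; an extra cut-off of viability at most 70% of control was not applied to them.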 Not all columns of the deposit are shown. Reagent sequences are not shown.

Magel2 (MAGE family member L2) → combined z-score class: no change with or without drug; viability z-score with doxorubicin: -0.22; viability z-score without drug: 0.84; Outcome: inactive
Plekhg4 (pleckstrin homology and RhoGEF domain containing G4) → combined z-score class: no change with or without drug; viability z-score with doxorubicin: -0.22; viability z-score without drug: 1.69; Outcome: inactive
Sypl2 (synaptophysin like 2) → combined z-score class: low cell count with doxorubicin only; viability z-score with doxorubicin: -2.02; viability z-score without drug: -1.52; Outcome: active
Tas2r104 (taste receptor, type 2, member 104) → combined z-score class: no change with or without drug; viability z-score with doxorubicin: 0.45; viability z-score without drug: 1.18; Outcome: inactive
Nmb (neuromedin B) → combined z-score class: no change with or without drug; viability z-score with doxorubicin: -0.67; viability z-score without drug: 0.17; Outcome: inactive
Rgs1 (regulator of G-protein signaling 1) → combined z-score class: no change with or without drug; viability z-score with doxorubicin: 0.22; viability z-score without drug: 1.52; Outcome: inactive
Or13p8 (olfactory receptor family 13 subfamily P member 8) → combined z-score class: no change with or without drug; viability z-score with doxorubicin: -0.11; viability z-score without drug: -0.51; Outcome: inactive
Gpr25 (G protein-coupled receptor 25) → combined z-score class: high cell count with doxorubicin only; viability z-score with doxorubicin: 2.02; viability z-score without drug: 0.84; Outcome: inactive
Itga6 (integrin alpha 6) → combined z-score class: no change with or without drug; viability z-score with doxorubicin: -0.56; viability z-score without drug: -0.84; Outcome: inactive
Arfgap2 (ARF GTPase activating protein 2) → combined z-score class: low cell count with doxorubicin only; viability z-score with doxorubicin: -2.7; viability z-score without drug: 0.67; Outcome: active
Rag1 (recombination activating 1) → combined z-score class: no change with or without drug; viability z-score with doxorubicin: 0.9; viability z-score without drug: -0.84; Outcome: inactive
Inpp5j (inositol polyphosphate 5-phosphatase J) → combined z-score class: no change with or without drug; viability z-score with doxorubicin: 0.34; viability z-score without drug: -0.67; Outcome: inactive
Ksr2 (kinase suppressor of ras 2) → combined z-score class: no change with or without drug; viability z-score with doxorubicin: 1.12; viability z-score without drug: 1.01; Outcome: inactive
Parn (poly(A)-specific ribonuclease (deadenylation nuclease)) → combined z-score class: no change with or without drug; viability z-score with doxorubicin: 0.45; viability z-score without drug: -0.51; Outcome: inactive
Ntsr1 (neurotensin receptor 1) → combined z-score class: no change with or without drug; viability z-score with doxorubicin: -1.01; viability z-score without drug: -1.85; Outcome: inactive
Esrrb (estrogen related receptor, beta) → combined z-score class: no change with or without drug; viability z-score with doxorubicin: 1.24; viability z-score without drug: 1.52; Outcome: inactive
Washc2 (WASH complex subunit 2) → combined z-score class: no change with or without drug; viability z-score with doxorubicin: 0.11; viability z-score without drug: 0.51; Outcome: inactive
Apobec3 → combined z-score class: no change with or without drug; viability z-score with doxorubicin: 1.91; viability z-score without drug: 1.18; Outcome: inactive
Gng4 (guanine nucleotide binding protein (G protein), gamma 4) → combined z-score class: no change with or without drug; viability z-score with doxorubicin: 0.45; viability z-score without drug: -0.17; Outcome: inactive
Ttc22 (tetratricopeptide repeat domain 22) → combined z-score class: high cell count with doxorubicin only; viability z-score with doxorubicin: 2.02; viability z-score without drug: 1.69; Outcome: inactive
Slco4c1 → combined z-score class: no change with or without drug; viability z-score with doxorubicin: 0.9; viability z-score without drug: 0.17; Outcome: inactive
Mrpl43 (mitochondrial ribosomal protein L43) → combined z-score class: low cell count without drug only; viability z-score with doxorubicin: -1.69; viability z-score without drug: -3.54; Outcome: inactive
Gnb1l → combined z-score class: no change with or without drug; viability z-score with doxorubicin: -0.9; viability z-score without drug: -1.18; Outcome: inactive
Cbfb (core binding factor beta) → combined z-score class: no change with or without drug; viability z-score with doxorubicin: 0.9; viability z-score without drug: 0.17; Outcome: inactive
Crx (cone-rod homeobox) → combined z-score class: no change with or without drug; viability z-score with doxorubicin: 0.22; viability z-score without drug: 0.84; Outcome: inactive
Pacsin3 (protein kinase C and casein kinase substrate in neurons 3) → combined z-score class: no change with or without drug; viability z-score with doxorubicin: 1.35; viability z-score without drug: -0.51; Outcome: inactive
P2ry6 (pyrimidinergic receptor P2Y, G-protein coupled, 6) → combined z-score class: no change with or without drug; viability z-score with doxorubicin: -0.9; viability z-score without drug: 0.84; Outcome: inactive
Slc25a46 → combined z-score class: no change with or without drug; viability z-score with doxorubicin: -1.24; viability z-score without drug: -0.51; Outcome: inactive
